{"source": "patent US9770451B2", "about": "“Composition including ATM inhibitor for reducing cellular senescence and use of the composition” (Samsung Electronics Co., Ltd., priority 2014, dated 2017)", "type_in_all_cases": "cell-based, human", "key": {"[1]": {"tested_on": "senescent fibroblasts (passage 37)", "test": "ROS measurement (MitoSOX Red, DHR123)", "conditions": "0.5 μM; DHR123 and MitoSOX"}, "[2]": {"tested_on": "senescent fibroblasts (passage 38)", "test": "DNA comet assay", "conditions": "0.5 μM, 4 weeks"}, "[3]": {"tested_on": "progeria senescent fibroblasts (passage 17)", "test": "Morphological change by microscopy", "conditions": "KU-60019 0.5 μM", "procedure": "Progeria senescent fibroblasts (Hutchinson-Gilford Progeria Syndrome Skin Fibroblasts, Coriell Cell Repositories, AG03198 B) were inoculated into a DMEM medium containing 10% FBS, 100 units/ml of penicillin, and 100 μg/ml of streptomycin (wherein all antibiotics were purchased from Gibco-BRL, Grand Island, N.Y.), and then, cultured in a 5% CO2 incubator at a temperature of 37° C. When progeria senescent cells were grown to about 85% confluency in a plate, the progeria senescent cells were subjected to subculture. The early subculture was carried out at a split ratio of 1:4, and the late subculture was carried out at a split ratio of 1:2. When the cell doubling time was 14 days, the cells were considered to be progeria senescent fibroblasts (passages 16 to 17).\n[…] The medium was replaced by a fresh medium containing KU-60019 (0.5 μM), once every 4 days. In addition, as a negative control group, the cells were cultured under the same conditions as described above, except that a medium used herein contained DMSO (0.05 (v/v) %).\nIn FIG. 10, a human dermal fibroblast was cultured in the presence of the ATM-kinase inhibitor KU-60019 (0.5 μM), and then, the cell shapes were photographed using a microscope. To provide a better view of the cells formed in a dashed square a, a dashed square a1 was randomly selected, and then, the cells are shown enlarged in the dashed square a1. […]"}}, "note": "At least one structure is not confirmed: it was looked up by name or label, or the drawing left a doubt.", "data": [{"smiles": "C[C@@H]1CN(CC(=O)Nc2ccc3c(c2)Cc2cccc(-c4cc(=O)cc(N5CCOCC5)o4)c2S3)C[C@H](C)O1", "note": "[KU-60019, 2-((2S,6R)-2,6-dimethylmorpholino)-N-(5-(6-morpholino-4-oxo-4H-pyran-2-yl)-9H-thioxanthen-2-yl)acetamide]", "values": [{"measurement": "amount of ROS vs control", "setting": "[1]", "value": "significantly decreased"}, {"measurement": "DNA damage (tail moment) vs DMSO control", "setting": "[2]", "value": "significantly recovered up to the young cellular levels"}, {"measurement": "cell number and morphology vs DMSO control", "setting": "[3]", "value": "exist in a great number in the presence of KU-60019 and show a spindle form"}]}]}
